Data: paper PMC10994853
Where two headings read alike, the source gives them in different places. These are yes or no findings as the source states them, for the method shown. Binding can be weak; no strength is given.

By UniProt entry, the sequences of proteins in these tests, tags left out. Where a name states a change or a piece, a line headed by the entry shows the natural chain unless it says otherwise.
UniProt Q5I6C7: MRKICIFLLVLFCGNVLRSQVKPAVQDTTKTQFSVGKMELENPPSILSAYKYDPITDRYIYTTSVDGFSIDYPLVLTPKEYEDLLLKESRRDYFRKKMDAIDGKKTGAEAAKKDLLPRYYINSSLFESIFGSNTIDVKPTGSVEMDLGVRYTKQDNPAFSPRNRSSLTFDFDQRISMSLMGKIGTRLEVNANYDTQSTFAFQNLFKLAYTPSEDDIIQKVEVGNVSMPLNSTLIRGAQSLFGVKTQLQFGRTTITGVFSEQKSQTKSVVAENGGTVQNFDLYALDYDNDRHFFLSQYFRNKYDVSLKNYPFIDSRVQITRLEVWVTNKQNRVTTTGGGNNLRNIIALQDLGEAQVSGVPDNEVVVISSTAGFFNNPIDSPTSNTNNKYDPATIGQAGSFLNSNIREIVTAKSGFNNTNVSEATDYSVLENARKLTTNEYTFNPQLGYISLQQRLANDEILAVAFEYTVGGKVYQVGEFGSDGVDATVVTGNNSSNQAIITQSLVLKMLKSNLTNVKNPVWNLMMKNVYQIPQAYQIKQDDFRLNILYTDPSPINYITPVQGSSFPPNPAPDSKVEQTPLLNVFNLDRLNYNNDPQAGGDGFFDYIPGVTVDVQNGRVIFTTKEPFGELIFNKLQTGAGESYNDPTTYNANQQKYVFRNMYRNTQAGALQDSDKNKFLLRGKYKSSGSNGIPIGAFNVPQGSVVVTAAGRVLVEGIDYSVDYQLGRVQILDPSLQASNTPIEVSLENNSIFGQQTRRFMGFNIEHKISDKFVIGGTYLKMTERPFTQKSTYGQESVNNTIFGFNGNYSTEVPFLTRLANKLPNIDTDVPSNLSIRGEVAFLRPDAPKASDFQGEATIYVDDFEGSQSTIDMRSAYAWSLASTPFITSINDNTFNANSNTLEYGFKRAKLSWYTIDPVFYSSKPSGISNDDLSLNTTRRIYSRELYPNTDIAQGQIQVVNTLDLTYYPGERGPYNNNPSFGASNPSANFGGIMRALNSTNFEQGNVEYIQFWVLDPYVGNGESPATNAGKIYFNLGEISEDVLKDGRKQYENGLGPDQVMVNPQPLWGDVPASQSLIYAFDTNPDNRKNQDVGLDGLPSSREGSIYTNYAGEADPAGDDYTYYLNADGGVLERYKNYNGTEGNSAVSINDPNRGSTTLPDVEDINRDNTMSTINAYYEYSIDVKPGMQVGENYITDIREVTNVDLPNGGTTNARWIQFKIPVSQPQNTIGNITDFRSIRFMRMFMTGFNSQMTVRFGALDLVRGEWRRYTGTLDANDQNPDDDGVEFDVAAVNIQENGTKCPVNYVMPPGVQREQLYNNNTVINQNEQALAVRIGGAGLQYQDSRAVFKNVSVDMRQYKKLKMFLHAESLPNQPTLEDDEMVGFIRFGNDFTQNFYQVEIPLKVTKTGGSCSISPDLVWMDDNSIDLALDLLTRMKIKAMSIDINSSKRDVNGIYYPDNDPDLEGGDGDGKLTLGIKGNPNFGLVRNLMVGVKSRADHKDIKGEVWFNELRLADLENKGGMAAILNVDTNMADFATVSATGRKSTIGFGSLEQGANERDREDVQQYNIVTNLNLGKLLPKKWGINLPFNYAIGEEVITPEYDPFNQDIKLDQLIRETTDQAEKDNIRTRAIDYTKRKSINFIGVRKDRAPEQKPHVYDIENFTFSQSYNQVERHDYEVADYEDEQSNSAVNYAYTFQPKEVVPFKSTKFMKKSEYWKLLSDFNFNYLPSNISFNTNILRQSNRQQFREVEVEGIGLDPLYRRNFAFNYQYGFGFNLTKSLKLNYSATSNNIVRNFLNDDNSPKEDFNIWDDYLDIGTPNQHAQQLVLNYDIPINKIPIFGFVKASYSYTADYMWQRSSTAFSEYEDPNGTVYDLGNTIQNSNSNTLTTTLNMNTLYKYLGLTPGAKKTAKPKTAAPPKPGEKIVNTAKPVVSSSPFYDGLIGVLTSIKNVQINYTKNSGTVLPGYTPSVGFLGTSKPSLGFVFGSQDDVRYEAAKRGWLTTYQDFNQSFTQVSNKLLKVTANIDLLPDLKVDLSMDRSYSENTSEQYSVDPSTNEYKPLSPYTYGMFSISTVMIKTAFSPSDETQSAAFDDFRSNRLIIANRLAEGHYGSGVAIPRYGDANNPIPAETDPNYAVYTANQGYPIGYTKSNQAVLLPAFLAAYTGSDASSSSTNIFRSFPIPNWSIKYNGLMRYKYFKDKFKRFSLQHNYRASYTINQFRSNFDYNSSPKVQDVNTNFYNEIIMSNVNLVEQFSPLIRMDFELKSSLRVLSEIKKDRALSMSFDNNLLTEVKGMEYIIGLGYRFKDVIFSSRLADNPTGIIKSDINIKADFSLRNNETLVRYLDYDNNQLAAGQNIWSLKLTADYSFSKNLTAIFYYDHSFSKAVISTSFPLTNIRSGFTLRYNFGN
UniProt A5FAQ0: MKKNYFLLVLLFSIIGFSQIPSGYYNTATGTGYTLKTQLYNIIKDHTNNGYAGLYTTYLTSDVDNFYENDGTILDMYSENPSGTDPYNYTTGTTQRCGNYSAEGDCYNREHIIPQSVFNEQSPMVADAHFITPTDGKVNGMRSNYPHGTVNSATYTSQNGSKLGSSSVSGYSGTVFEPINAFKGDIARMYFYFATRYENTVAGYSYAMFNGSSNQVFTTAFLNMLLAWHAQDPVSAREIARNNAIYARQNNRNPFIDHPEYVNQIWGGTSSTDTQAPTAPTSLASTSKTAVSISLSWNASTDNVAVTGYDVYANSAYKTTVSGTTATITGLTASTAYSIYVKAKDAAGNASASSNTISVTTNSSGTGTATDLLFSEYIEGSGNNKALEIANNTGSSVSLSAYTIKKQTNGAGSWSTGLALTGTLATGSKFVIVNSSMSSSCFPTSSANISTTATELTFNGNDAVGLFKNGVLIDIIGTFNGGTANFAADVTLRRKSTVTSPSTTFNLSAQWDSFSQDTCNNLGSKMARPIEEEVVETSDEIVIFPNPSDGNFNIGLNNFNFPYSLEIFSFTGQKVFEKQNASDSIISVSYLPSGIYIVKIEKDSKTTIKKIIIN

How the values were obtained:
[1] = molecular target: Twin-strep–SprA lacking its N terminus, sprA(Δnterm) (Flavobacterium johnsoniae) (UniProt Q5I6C7); assay: cryo-EM structure; substrate-bound PorV complexes trapped in vivo: Twin-strep–SprA complexes from ΔgldL peak II, ΔgldLΔsprE, ΔgldL sprA(Δnterm), ΔgldLΔskpA, ΔsprE and ΔgldM backgrounds, in LMNG
[2] = molecular target: PorV (Flavobacterium johnsoniae (endogenous)); assay: cryo-EM structure; Extended Translocon, peak I of Twin-strep–SprA complexes from a ΔgldL background (also seen at 4.3 Å from ΔgldM peak I); assembled in vivo, in LMNG
[3] = molecular target: Twin-strep-tagged SprA (Flavobacterium johnsoniae); assay: as above
[4] = molecular target: PorV (Flavobacterium johnsoniae (endogenous)); assay: cryo-EM structure; substrate-bound PorV complexes trapped in vivo: Twin-strep–SprA complexes from ΔgldL peak II, ΔgldLΔsprE, ΔgldL sprA(Δnterm), ΔgldLΔskpA, ΔsprE and ΔgldM backgrounds, in LMNG
[5] = molecular target: Twin-strep-tagged SprA (Flavobacterium johnsoniae); assay: as above
[6] = molecular target: Twin-strep–SprA lacking its N terminus, sprA(Δnterm) (Flavobacterium johnsoniae) (UniProt Q5I6C7); assay: as above; remark: listed apart in the source

Measured: binding

NucA (Fjoh_4723) (from UniProt A5FAQ0)
binds: [1]

B1: RemZ (Fjoh_0803) (protein, UniProt A5FLT3 1-1114)
chain: MDVQAWGGGGAGGGASGAVLDGRAAAGGGGGAYARSNITVAAGATLNASVAGTTTNALVSGAAVNGAAGGSSTILGFETSILALGGGGGGANNAGGTPAGGAGGSAASSVGNVSKLDGAAGGNGVTGAIGLLTVSGAGGTAGGGGGAGGAGVASVALGNGPGNAGTAPGGGGSGAMQSLLGGAQIGGSGAAGRVIITYTCPTYSITGISAANVCNSVGTTSVVTLTSSGGGLPIGPYVVTYNRSNPSGTGLTAIMNVTTPGTGTFTAAGLNVIGTSNITVTNLTSAACSSNISTNNVASLTVFAATVGGTLAGTATVCSGATSGTLTLSGQTGSIIKWESSVSPFTVWTTIPNTTNTYTSGALTETSQFRAVIQNGNCAVVNSSIATITVNPLPQGSLSANGPFCVTGSGQLTFTATAGTGPYTIVYKENGGADRTAANISSGVAFPTFTTPVTTTTVYTLVSVTGANTCSRSSGFTNNTATITVNSRIATPGFGTVTQPDCVTSTGSVVLTGLPAGSWTITQSGTASQTYNSSGTTYTISNLAVGNYTFTVQDAANCPSLATSTLTLIAPVVNIWNGTSWSKGSPPISTDVVRFSGNYSTTGNLSGCSLIVDSGFTVTVNSNHTLTISNAVTNNGGQLIFENNSSLLQTNNVTNVGNITYKRITPPVRRYDLTYWSSPITRTPPFTLYDLSPGTLADKYYSYDPVAGWVISFNGTQQMVPGRGYVVRAPQTNDLNTGANYLGAFVGVPNNGPISVSLGTAEAFQLLGNPYPSAIYADQFIANNSANLYGTLYFWTHNSLPSSSTPGGAQYNYDNNDYAVYNLSGSIIVGGMTGQGATTPGNQSAPLGYIAAGQGFFVVSKTAGNAVFTNSMRVAANNTQFYKTNKSAIERHRVWINLTNTQGAFKQLLIGYIEGATNFWDHNYDAITADANPHLDFYSINEGQNLVIQGRSLPFNESDVVPLGYRSAIAGEFSISLDHADGDLTNHAVYLEDKLTNTLHNLQTSNYTFNTAIGTFSDRFVIRYTTATLGTDDFENQTNSFYVSVKDKTIKLNSTEDVMREVSIFDISGKLLYNNKKVENTEFQVSNFQSGNQVLIVKVTLDNGNIITKKIVFN
not listed: [1]
binds: all other assays above
